Laboratory results reported in EP0311383B1, “Monoclonal antibody to methamphetamine, preparation of the same, assay method and assay kit of methamphetamine” (UBE INDUSTRIES, LTD., priority 1987, dated 1989).

Tests used:
[1] = Recovery test of MA in the presence of methylephedrine, enzyme immunoassay with enzyme-labeled antibody; set-up: species or system man
[2] = system: serum having high cross-reactivity with ME; details: Comparative ex.: MA added 5.0 µg/ml, from cross-reactive ratio of serum of S. Tokura, Anal. Biochem. 161, 117 (1987), cited from earlier work
[3] = Recovery test of MA added to urine, enzyme immunoassay with enzyme-labeled antibody; set-up: species or system man

For `CN[C@@H](C)Cc1ccccc1` [MA, methamphetamine], the “amount of MA assayed” value ([1]; MA added 0.5 µg/ml, ME added 0 µg/ml) was 0.56 µg/mL, the “amount of MA assayed” value ([1]; MA added 0.5 µg/ml, ME added 1 µg/ml) was 0.58 µg/mL and the “amount of MA assayed” value ([1]; MA added 0.5 µg/ml, ME added 10 µg/ml) was 0.62 µg/mL. For the same compound, the “amount of MA assayed” value ([1]; MA added 0.5 µg/ml, ME added 100 µg/ml) was 1.60 µg/mL, the “amount of MA assayed” value ([1]; MA added 1.0 µg/ml, ME added 0 µg/ml) was 1.25 µg/mL and the “amount of MA assayed” value ([1]; MA added 1.0 µg/ml, ME added 1 µg/ml) was 1.25 µg/mL. The “amount of MA assayed” value ([1]; MA added 1.0 µg/ml, ME added 10 µg/ml) was 1.50 µg/mL, the “amount of MA assayed” value ([1]; MA added 1.0 µg/ml, ME added 100 µg/ml) was 2.60 µg/mL and the “amount of MA assayed” value ([1]; MA added 5.0 µg/ml, ME added 0 µg/ml) was 5.40 µg/mL. The “amount of MA assayed” value ([1]; MA added 5.0 µg/ml, ME added 1 µg/ml) was 5.50 µg/mL, the “amount of MA assayed” value ([1]; MA added 5.0 µg/ml, ME added 10 µg/ml) was 5.90 µg/mL and the “amount of MA assayed” value ([1]; MA added 5.0 µg/ml, ME added 100 µg/ml) was 6.00 µg/mL. The “amount of MA assayed” value ([2]; ME added 10 µg/ml) was 7.00 µg/mL, the “amount of MA assayed” value ([2]; ME added 100 µg/ml) was 25.00 µg/mL and the Found value ([3]; MA concentration in urine after MA added 30 ng/ml) was 36.5 ng/mL. It also gave a Found value ([3]; MA concentration in urine after MA added 100 ng/ml) of 100 ng/mL, a Found value ([3]; MA concentration in urine after MA added 300 ng/ml) of 300 ng/mL and a Found value ([3]; MA concentration in urine after MA added 1000 ng/ml) of 925 ng/mL. For the same compound, the Found value ([3]; MA concentration in urine after MA added 3000 ng/ml) was 2650 ng/mL.

For `CC([C@H](O)c1ccccc1)N(C)C` (stereo partly shown) [ME, methylephedrin], the “amount of MA assayed” value ([1]; Control: MA added 0, ME added 1 µg/ml) was 0.03 µg/mL, the “amount of MA assayed” value ([1]; Control: MA added 0, ME added 10 µg/ml) was 0.12 µg/mL and the “amount of MA assayed” value ([1]; Control: MA added 0, ME added 100 µg/ml) was 1.25 µg/mL.

Like-named read-outs stand apart in the source and are kept apart here.
